{
  "source": "patent US20110301238A1",
  "about": "“SEIZURE RELATED DISORDERS AND THERAPEUTIC METHODS THEREOF” (priority 2010, published 2011)",
  "origin": "cited, not measured here",
  "key": {"[1]": {"test_system": "mouse seizure models", "parameters": "key: +: Efficacy in mouse seizure models is indicated as plus; −: minus; some (+/−)", "conditions": "literature; cited from earlier work"}, "[2]": {"test_system": "mouse seizure models", "parameters": "key: +: Efficacy in mouse seizure models is indicated as plus; −: minus; some (+/−)", "conditions": "literature; cited from earlier work", "remark": "listed apart in the source"}, "[3]": {"test_system": "Wistar rats", "parameters": "key to Efficacy in PTZ in PILO-SE rodents (chronic): +: Efficacy in mouse seizure models is indicated as plus; −: minus; some (+/−)", "conditions": "cited from earlier work; for sensitivity of PTZ-induced seizures to drug: one month after pilocarpine, subcutaneous PTZ"}, "[4]": {"test_system": "mouse seizure models", "parameters": "key: +: Efficacy in mouse seizure models is indicated as plus; −: minus; some (+/−)", "conditions": "literature; the PTZ model was performed in rats for PHB, PHT and VPA; cited from earlier work"}},
  "note": "Like-named read-outs stand apart in the source and are kept apart here. At least one structure is not confirmed: it was looked up by name or label, or the drawing left a doubt.",
  "data": [
    {"molecule": "CCCC(CCC)C(=O)O", "note": "[VPA, valproate]", "values": [
      {"measurement": "Efficacy in 6 Hz (acute)", "setting": "[1]", "result": "+"},
      {"measurement": "Efficacy in MEST (acute)", "setting": "[2]", "result": "+"},
      {"measurement": "sensitivity of PTZ-induced seizures to drug", "setting": "[3]; SE Wistar rats", "result": "not in SE rats"},
      {"measurement": "Efficacy in PTZ in PILO-SE rodents (chronic)", "setting": "[3]; literature, PTZ model performed in rats for PHB, PHT and VPA", "result": "−"},
      {"measurement": "sensitivity of PTZ-induced seizures to drug", "setting": "[3]; no SE Wistar rats", "result": "sensitive"},
      {"measurement": "Efficacy in PTZ (acute)", "setting": "[4]", "result": "+"}
    ]}
  ]
}
